{"source": "PubChem BioAssay AID1224827 (NIAID, 2016)", "test": "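Retest primary hits on a TNF reporter with six siRNAs per gene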 (follow-up of hits)", "system": "RAW264.7 G9 mouse macrophage reporter clone", "reagent": "single siRNA against mouse genes, 100 nM siRNA", "duration": "siRNA for 2 days, then LPS about 16 h", "conditions": "bacterial lipopolysaccharide (LPS), 10 ng/ml, cells fixed after overnight (about 16 h) stimulation", "measurement": "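TNF promoter reporter red fluorescence in nuclei, background subtracted, normalised per plate and to non-targeting control siRNA, as z-scores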", "direction": "TNF reporter z-score, mean: higher = stronger Tnf promoter reporter signal", "hit rule": "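Active siRNA: replicate-mean z-score of 2 or more, or -2 or less; no calls for control wells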", "note": "In all, the deposit lists about 3,800 reagents; this is an unselected part. Over the whole deposit, about 2,200 (57%) got an active call. 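Active means a strong reporter change in either direction; calls are per siRNA, not per gene; qiagen siRNAs gave weaker effects.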 Unmarked entries are inactive. The numbers tell different reagents against one gene apart. Not all columns of the deposit are shown."}
{"gene":"Or2y1b","siRNA no.":1,"TNF reporter z-score, mean":-0.0491}
{"gene":"Or2y1b","siRNA no.":2,"TNF reporter z-score, mean":"-2.9 (active)"}
{"gene":"Or2y1b","siRNA no.":3,"TNF reporter z-score, mean":"-4.47 (active)"}
{"gene":"Or2y1b","siRNA no.":4,"TNF reporter z-score, mean":"3.21 (active)"}
{"gene":"Or2y1b","siRNA no.":5,"TNF reporter z-score, mean":1.19}
{"gene":"Or2y1b","siRNA no.":6,"TNF reporter z-score, mean":0.335}
{"gene":"Vps35","siRNA no.":1,"TNF reporter z-score, mean":"-2.06 (active)"}
{"gene":"Vps35","siRNA no.":2,"TNF reporter z-score, mean":"-2.74 (active)"}
{"gene":"Vps35","siRNA no.":3,"TNF reporter z-score, mean":"-3.04 (active)"}
{"gene":"Vps35","siRNA no.":4,"TNF reporter z-score, mean":"3.34 (active)"}
{"gene":"Vps35","siRNA no.":5,"TNF reporter z-score, mean":-0.103}
{"gene":"Vps35","siRNA no.":6,"TNF reporter z-score, mean":"-2.83 (active)"}
{"gene":"Or5d43","siRNA no.":1,"TNF reporter z-score, mean":"2.12 (active)"}
{"gene":"Or5d43","siRNA no.":2,"TNF reporter z-score, mean":0.083}
{"gene":"Or5d43","siRNA no.":3,"TNF reporter z-score, mean":"-2.15 (active)"}
{"gene":"Or5d43","siRNA no.":4,"TNF reporter z-score, mean":"4.66 (active)"}
{"gene":"Or5d43","siRNA no.":5,"TNF reporter z-score, mean":1.62}
{"gene":"Or5d43","siRNA no.":6,"TNF reporter z-score, mean":1.42}
{"gene":"Sdk1","siRNA no.":1,"TNF reporter z-score, mean":-1.94}
{"gene":"Sdk1","siRNA no.":2,"TNF reporter z-score, mean":"-4.23 (active)"}
{"gene":"Sdk1","siRNA no.":3,"TNF reporter z-score, mean":"-4.76 (active)"}
{"gene":"Sdk1","siRNA no.":4,"TNF reporter z-score, mean":"2.56 (active)"}
{"gene":"Sdk1","siRNA no.":5,"TNF reporter z-score, mean":-1.08}
{"gene":"Sdk1","siRNA no.":6,"TNF reporter z-score, mean":"-4.24 (active)"}
{"gene":"Pole3","siRNA no.":1,"TNF reporter z-score, mean":"-2.55 (active)"}
{"gene":"Pole3","siRNA no.":2,"TNF reporter z-score, mean":"-3.79 (active)"}
{"gene":"Pole3","siRNA no.":3,"TNF reporter z-score, mean":"-4.6 (active)"}
{"gene":"Pole3","siRNA no.":4,"TNF reporter z-score, mean":0.491}
{"gene":"Pole3","siRNA no.":5,"TNF reporter z-score, mean":-0.934}
{"gene":"Pole3","siRNA no.":6,"TNF reporter z-score, mean":-1.85}
{"gene":"Or13a25","siRNA no.":1,"TNF reporter z-score, mean":-1.85}
{"gene":"Or13a25","siRNA no.":2,"TNF reporter z-score, mean":"-2.94 (active)"}
{"gene":"Or13a25","siRNA no.":3,"TNF reporter z-score, mean":"-4.88 (active)"}
{"gene":"Or13a25","siRNA no.":4,"TNF reporter z-score, mean":"2.75 (active)"}
{"gene":"Or13a25","siRNA no.":5,"TNF reporter z-score, mean":0.877}
{"gene":"Or13a25","siRNA no.":6,"TNF reporter z-score, mean":"-2.83 (active)"}
